The values below come from article PMC7582373 (Molecules, 2020).

HELM strings list residues between dots; [ac] is acetyl, [am] amide, other brackets name non-standard units. A value given as a limit tells only on which side of the number the result lay.

This series is described as follows: general procedure: Fmoc solid-phase peptide synthesis; Rink amide MBHA resin; HBTU, 0.4 M NMM/DMF (on-resin bis-lactamization). The note with it: whole synthesis; for final HPLC purity: 214 nm; for isolated yield: overall.

On to “PEPTIDE1{[ac].E.W.A.E.T.A.A.[L-ThiaLys].K.F.L.[L-ThiaLys].A.H.A.[am]}|CHEM1{[pPDA]}$PEPTIDE1,CHEM1,9:R3-1:R1|PEPTIDE1,CHEM1,13:R3-1:R2$$$V2.0”, for which the “final HPLC purity” value is over 95% and the isolated yield was about 0.12%.
As for “PEPTIDE1{[ac].E.W.A.E.T.A.A.[L-aMeThiaLys].K.F.L.[L-aMeThiaLys].A.H.A.[am]}|CHEM1{[pPDA]}$PEPTIDE1,CHEM1,9:R3-1:R1|PEPTIDE1,CHEM1,13:R3-1:R2$$$V2.0”, the “final HPLC purity” value is listed as over 95% and the isolated yield is reported as about 1.5%.
